Inconclusive results, whose numbers are uncertain, are shown with a selection of clear calls. Where the call is inconclusive, the potency comes from a doubtful curve fit. Activity calls are given as the source filed them. Rule for the calls: active = hit-call score of the fitted dose curve at least 0.9, where 1 is the maximum; inconclusive = response in the unintended direction; inactive = score below 0.9.
Test system: chicken Androgen Receptor (AR), gene 422165
Assay: ATG_chAR_XSP1: Attagene TRANS-FACTORIAL Multi-Species (XSP1) HepG2 Assay for chicken Androgen Receptor (AR) (AID 2283768)
Description: ATG_XSP1_multi-species_TRANS is a cell-based, multiplexed assay created by modifying the existing Attagene TRANS-FACTORIAL system to include a panel of nuclear receptors from some or all the following species: human (Homo sapiens), mouse (Mus musculus), frog (Xenopus laevis), zebrafish (Danio rerio), chicken (Gallus gallus), and turtle (Chrysemys picta). The ECOTOX-FACTORIAL format uses HepG2, a human liver cell line, with measurements taken at 24 hours after chemical dosing in a 24-well plate. Xsp1 included 3 nM 6-alpha-fluorotestosterone to partially stimulate the androgen receptor.ATG_chAR_XSP1 is one of 29 assay components measured or calculated from the ATG_XSP1_multi-species_TRANS assay. It is designed to make measurements of mRNA induction, a form of inducible reporter, as detected with fluorescence intensity signals by Reverse transcription polymerase chain reaction (RT-PCR) and Capillary electrophoresis technology.The assay endpoint ATG_chAR_XSP1 was analyzed in the positive analysis fitting direction relative to DMSO as the negative control and baseline of activity. Using a type of inducible reporter, measures of mRNA for gain-of-signal activity can be used to understand the reporter gene at the transcription factor-level as they relate to the gene AR. Furthermore, this assay endpoint can be referred to as a primary readout, because this assay has produced multiple assay endpoints where this one serves a reporter gene function. To generalize the intended target to other relatable targets, this assay endpoint is annotated to the nuclear receptor intended target family, where the subfamily is steroidal.
Human liver HepG2 cells are transiently transfected with multiple reporter transcription units (MRTUs) in 6-well plates using FuGene 6 reagent (Roche; 3 ml FuGene/1 mg DNA). The MRTU constructs are regulated by a cis-regulating element (promoter). […] A major difference between the CIS and TRANS system is that in CIS activities of endogenous TFs are measured, whereas the TRANS assay evaluates changes in activities of exogenous, chimeric NR-Gal4 proteins. […] At the end of 24 hour incubation, total RNA was isolated using TriZol reagent (Invitrogen). The isolated RNA is then reverse-transcribed using oligo(dT) primer and Mo-MLV reverse transcriptase (Invitrogen) with DNAse I (Ambion) treatment for 30 min. The one-tenth of the produced cDNA was amplified by PCR using Taq DNA polymerase (Invitrogen) and two reporter sequence-specific primers. The PCR products were fluorescently labeled by primer extension with 6-arboxyfluorescein (6-FAM) 5'-labeled reporter sequence-specific primer (2 min at 95 C, 20 s at 68 C and 10 min at 72 C) and these products were digested with 5U of HpaI (New England Biolabs) for 2h at 37 C. The fragments were purified using Qiaquick PCR columns (Qiagen), analyzed on an ABI 3130xL genetic analyzer (Applied Biosystems) with peak positions identified by using a set of X-rhodamine (ROX)-labeled MapMarker1000 molecular weight standards (BioVentures). The raw capillary electrophoresis data was processed using Attagraph software (Attagene).

Row | Structure (SMILES) | outcome | AC50
1 | CCCCOC(=O)c1ccccc1C(=O)OCc1ccccc1 | inactive | –
2 | O=P(Oc1ccccc1)(Oc1ccccc1)Oc1ccccc1 | inactive | –
3 | Clc1ccc(C(c2ccc(Cl)cc2)C(Cl)(Cl)Cl)cc1 | – | inconclusive: 1.52 µM
4 | OC(c1ccc(Cl)cc1)(c1cncnc1)c1ccccc1Cl (stereo unspecified) | – | inconclusive: 181 µM
5 | C#CCC1=C(C)C(OC(=O)C2C(C=C(C)C)C2(C)C)CC1=O (stereo unspecified) | – | inconclusive: 171 µM
6 | CCOP(=S)(OCC)SCn1c(=O)oc2cc(Cl)ccc21 | – | inconclusive: 140 µM
7 | C#CC(C)(C)NC(=O)c1cc(Cl)cc(Cl)c1 | – | active: 26.4 µM
8 | CC(C)(c1cc(Cl)c(O)c(Cl)c1)c1cc(Cl)c(O)c(Cl)c1 | – | inconclusive: 152 µM
9 | O=S(=O)(O)C(F)(F)C(F)(F)C(F)(F)C(F)(F)C(F)(F)C(F)(F)C(F)(F)C(F)(F)F | – | active: 148 µM
10 | CCCC1COC(Cn2cncn2)(c2ccc(Cl)cc2Cl)O1 (stereo unspecified) | – | inconclusive: 100 µM
11 | CCc1cccc(C)c1N(C(=O)CCl)C(C)COC (stereo unspecified) | – | inconclusive: 179 µM
12 | CCCCC(CC)COC(=O)c1ccccc1C(=O)OCC(CC)CCCC (stereo unspecified) | – | inconclusive: 175 µM
13 | CSC(=O)c1c(C(F)F)nc(C(F)(F)F)c(C(=O)SC)c1CC(C)C | – | inconclusive: 23 µM
14 | COC(=O)N(OC)c1ccccc1COc1ccn(-c2ccc(Cl)cc2)n1 | inactive | –
15 | CCOP(=S)(OCC)Oc1ccc2c(C)c(Cl)c(=O)oc2c1 | – | inconclusive: 100 µM
16 | CC(C)(C)CC(C)(C)c1ccc(O)cc1 | – | inconclusive: 16.3 µM

No new results follow: an excerpt of the list.
Row | Structure (SMILES) | outcome | AC50
11 | CCc1cccc(C)c1N(C(=O)CCl)C(C)COC (stereo unspecified) | – | inconclusive: 179 µM
12 | CCCCC(CC)COC(=O)c1ccccc1C(=O)OCC(CC)CCCC (stereo unspecified) | – | inconclusive: 175 µM
13 | CSC(=O)c1c(C(F)F)nc(C(F)(F)F)c(C(=O)SC)c1CC(C)C | – | inconclusive: 23 µM
14 | COC(=O)N(OC)c1ccccc1COc1ccn(-c2ccc(Cl)cc2)n1 | inactive | –

From PubChem BioAssay (EPA / NIEHS)
